# Reference: PubChem BioAssay AID1117319 (Southern Research Institute, 2015)
# Chains of the proteins cited; added tags and fusions are not shown. Lines headed by an entry give the natural chain unless they say otherwise; changes in a name come on top.
# UniProt P69720: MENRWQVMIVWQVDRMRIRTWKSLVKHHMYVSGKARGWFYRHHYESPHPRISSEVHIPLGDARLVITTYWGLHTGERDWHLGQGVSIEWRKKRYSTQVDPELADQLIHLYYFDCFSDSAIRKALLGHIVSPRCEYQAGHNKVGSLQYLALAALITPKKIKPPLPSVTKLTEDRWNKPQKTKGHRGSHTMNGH
# UniProt P69721: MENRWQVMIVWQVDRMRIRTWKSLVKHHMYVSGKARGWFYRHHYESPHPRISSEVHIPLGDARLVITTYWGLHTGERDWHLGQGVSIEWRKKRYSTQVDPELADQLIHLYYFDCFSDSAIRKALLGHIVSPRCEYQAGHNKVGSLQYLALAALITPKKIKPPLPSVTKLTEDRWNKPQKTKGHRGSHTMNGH
# UniProt P69722: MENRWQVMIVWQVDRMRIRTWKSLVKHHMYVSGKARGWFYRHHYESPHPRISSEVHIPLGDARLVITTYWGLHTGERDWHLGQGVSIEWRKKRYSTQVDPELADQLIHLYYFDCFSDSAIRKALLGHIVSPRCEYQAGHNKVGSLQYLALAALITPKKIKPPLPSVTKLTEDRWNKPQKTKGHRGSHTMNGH
# UniProt P69723: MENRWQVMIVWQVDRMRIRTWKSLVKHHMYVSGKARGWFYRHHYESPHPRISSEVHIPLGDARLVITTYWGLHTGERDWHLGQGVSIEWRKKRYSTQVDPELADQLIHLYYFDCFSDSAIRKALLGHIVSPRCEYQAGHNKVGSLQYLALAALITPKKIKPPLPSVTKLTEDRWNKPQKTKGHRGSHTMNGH
# UniProt Q9HC16: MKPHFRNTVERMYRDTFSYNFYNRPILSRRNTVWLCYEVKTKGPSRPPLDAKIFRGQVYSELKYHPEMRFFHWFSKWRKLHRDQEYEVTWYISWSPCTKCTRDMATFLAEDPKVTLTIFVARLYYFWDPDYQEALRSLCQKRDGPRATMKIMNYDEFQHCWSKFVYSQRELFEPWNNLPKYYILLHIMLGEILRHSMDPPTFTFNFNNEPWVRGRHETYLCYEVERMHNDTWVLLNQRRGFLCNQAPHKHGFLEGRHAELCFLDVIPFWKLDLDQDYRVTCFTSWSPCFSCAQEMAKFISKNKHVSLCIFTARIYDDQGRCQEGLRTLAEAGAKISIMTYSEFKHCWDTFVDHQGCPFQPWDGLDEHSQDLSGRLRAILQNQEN
# About 1,500 (0.58%) of roughly 260,000 compounds were called active. Inconclusive results, whose numbers are uncertain, are shown with a selection of clear calls.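 Rule for the calls: active = inhibition above a set limit at one or more doses, reproduced on every date tested; inconclusive = results disagree between test dates, or hit never tested in dose response; inactive = the rest.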
# Target: Virion infectivity factor (Human immunodeficiency virus type 1 group M subtype B (isolate BH10)) + Virion infectivity factor (Human immunodeficiency virus type 1 group M subtype B (isolate BRU/LAI)) + Virion infectivity factor (Human immunodeficiency virus type 1 group M subtype B (isolate PCV12)) + Virion infectivity factor (Human immunodeficiency virus type 1 group M subtype B (isolate HXB2)) + DNA dC->dU-editing enzyme APOBEC-3G (Homo sapiens) (UniProt P69720+P69721+P69722+P69723+Q9HC16)
# Assay: inhibitors of Vif binding to APOBEC3G peptide, primary screen, biochemical, TR-FRET, GST-Vif 1-94, biotin-A3G peptide, dose response retest (AID 1117319);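 note: Vif residues 1-94 fused to GST binding biotinylated APOBEC3G peptide 110-148; 0% = full assay without inhibitor and 100% = GST in place of GST-Vif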
# Conditions: hits give high values
row,Compound,inhibition
1,O=C(CCc1ccc(Oc2cc([N+](=O)[O-])cc([N+](=O)[O-])c2)cc1)Nc1cccc(Cl)c1,inconclusive: 38.2%
2,CCOc1ccc(OCC)c(NC(=O)CSc2nnc(Cn3cnc4ccccc43)n2C)c1,inconclusive: 62.7%
3,COc1cccc(NC(=S)NN=C2CCCCCC2)c1,inconclusive: 44.2%
4,COc1cccc(-c2cc(C(=O)N3CCN(Cc4ccccc4)CC3)no2)c1,inconclusive: 46.7%
5,Cc1nc(-c2ccc(S(=O)(=O)Nc3ccc(Br)cc3Cl)s2)cs1,inactive: -10.4%
6,COc1ccc(CC(=O)NCc2nnc(SCC(=O)c3ccc(OC)cc3)n2C)cc1,inconclusive: 42.9%
7,Cn1c(=O)c2c(nc(N3CCOCC3)n2C/C=C/c2ccccc2)n(C)c1=O,inconclusive: 56.8%
8,CCn1c(CNc2nc3ccccc3n2C(C)C)nc2ccccc21,inconclusive: 34%
9,Cc1ccnc(NS(=O)(=O)c2ccc(NC(=O)Cc3ccccc3)cc2)n1,inactive: 4.16%
10,O=C(O)c1cccc(N=NN2CCOCC2)c1,inactive: 0.39%
11,COC(=O)c1ccc(C(=O)NN)cc1,inactive: -8.26%
12,O=C(CN(c1ccc(Cl)c(Cl)c1)S(=O)(=O)c1ccccc1)N1CCc2ccccc2C1,inconclusive: 42.3%
13,NCCN=C1NS(=O)(=O)c2ccccc21,inconclusive: 34%
14,S=C(NCC1CCCO1)Nc1ccccc1 (stereo unspecified),inconclusive: 35.7%
15,Cc1cc2nnc(SC(C)C#N)n2c2ccccc12 (stereo unspecified),inconclusive: 35.7%
16,O=S(=O)(c1ccccc1)N(CC(O)CN1CCCCC1)c1ccccc1 (stereo unspecified),inconclusive: 55.1%
17,CC(C)(CO)NCc1cc(Br)ccc1OCc1ccccc1,inactive: -4.77%
18,COc1ccc2nc(SCC(N)=O)[nH]c2c1,inconclusive: 41.6%
19,CC1CN(C(=O)c2cccs2)CCN1C(=O)c1cccs1 (stereo unspecified),inconclusive: 39.7%
20,Cc1ccc2nc(SCCC#N)nc(C)c2c1,inconclusive: 54.5%
21,CSCC(=O)N1CCCC(CNC(=O)c2ccccc2Cl)C1 (stereo unspecified),inactive: -7.52%
22,Cc1ccccc1/C(N)=N/OC(=O)c1ccc(F)cc1,inconclusive: 62.8%
23,CC(C)Oc1ccc(-c2nn(-c3ccccc3)cc2/C=c2\sc3ncnn3c2=O)cc1,inconclusive: 48.1%
24,CCc1ccc(OC)c(-c2csc(N)n2)c1,inconclusive: 39.3%
25,COC(=O)c1cccc(C(=O)N2CCCC(CNC(=O)c3ccccc3Cl)C2)c1 (stereo unspecified),inconclusive: 55.4%
26,COc1ccccc1NS(=O)(=O)c1ccc(Cl)c(NC(=O)c2sc3cc(Cl)ccc3c2Cl)c1,inconclusive: 37.1%

# Arranged by length of the SMILES (high to low): 3 of the compounds above.
row,Compound,inhibition
1,O=C(CCc1ccc(Oc2cc([N+](=O)[O-])cc([N+](=O)[O-])c2)cc1)Nc1cccc(Cl)c1,inconclusive: 38.2%
21,CSCC(=O)N1CCCC(CNC(=O)c2ccccc2Cl)C1 (stereo unspecified),inactive: -7.52%
17,CC(C)(CO)NCc1cc(Br)ccc1OCc1ccccc1,inactive: -4.77%
